Test results published in PubChem BioAssay AID248 (DTP/NCI, 2004).
The list is a part of this screen's results and no random one: it is rich in T/C values a quarter to a half above the control, in often repeated tests (any T/C) and in doses without a T/C. Other doses and runs of a compound stand elsewhere. T/C gives the treated animals as a percentage of the vehicle group. Some doses have a count of surviving animals in place of a T/C: the source holds a T/C of zero for them, seemingly a mark for toxic or unscored doses. Some doses without a T/C left all or most animals alive at the check, yet need not have been tolerated: survival well below the control is almost never listed, so the zero probably covers shortened survival too. Survivors were counted at the toxicity check, usually on the fifth day, unless a day is given; later deaths do not show. Schedules are NCI's codes, taken here to give the interval after Q, in days (D) or hours (H), and the number of doses after X. Some schedule codes hold Z or #, which are not explained here.

System: L1210 leukemia ip in BDF1 mice, survival T/C
Test: NCI In Vivo Anticancer Drug Screen. Data for tumor model L1210 Leukemia (intraperitoneal) in B6D2F1 (BDF1) mice
Settings: T/C endpoint: mean survival time, higher T/C = longer survival
[1] = dose: 400.0 mg/kg/injection, schedule: Q01DX009 (ip), vehicle: saline with Tween-80
[2] = dose: 100.0 mg/kg/injection, schedule: Q01DX009 (ip), vehicle: saline
[3] = dose: 400.0 mg/kg/injection, schedule: Q04DX002 (ip), vehicle: saline
[4] = dose: 100.0 mg/kg/injection, schedule: Q01DX009 (ip), vehicle: Klucel (hydroxypropylcellulose) (HPC)
[5] = dose: 200.0 mg/kg/injection, schedule: Q01DX009 (ip), vehicle: Klucel (hydroxypropylcellulose) (HPC)
[6] = dose: 400.0 mg/kg/injection, schedule: Q01DX001 (ip), vehicle: carboxymethylcellulose (CMC)
[7] = dose: 25.0 mg/kg/injection, schedule: Q01DX009 (ip), vehicle: saline
[8] = dose: 50.0 mg/kg/injection, schedule: Q01DX009 (ip), vehicle: saline
[9] = dose: 200.0 mg/kg/injection, schedule: Q01DX009 (ip), vehicle: saline
[10] = dose: 200.0 mg/kg/injection, schedule: Q04DX003 (ip), vehicle: saline
[11] = dose: 400.0 mg/kg/injection, schedule: Q04DX003 (ip), vehicle: saline
[12] = dose: 400.0 mg/kg/injection, schedule: Q01DX001 (ip), vehicle: saline
[13] = dose: 150.0 mg/kg/injection, schedule: Q01DX001 (ip), vehicle: other
[14] = dose: 300.0 mg/kg/injection, schedule: Q01DX001 (ip), vehicle: other

Nc1ccc(OCCCCNC(=O)c2ccc(S(=O)(=O)F)cc2)c(Cl)c1
survivor count [1]: 3 of 6

CC(=N\NC(N)=S)/C(=N/NC(N)=S)c1ccccc1
survivor count (dose: 240.0 mg/kg/injection, schedule: Q01DX Z (ip), vehicle: carboxymethylcellulose (CMC)): 5 of 6

CCN(CC)CCCC(C)Nc1ccc(NC(C)CCCN(CC)CC)c2c1C(=O)c1ccccc1C2=O (stereo not drawn)
survivor count [2]: 1 of 3
survivor count (dose: 200.0 mg/kg/injection, schedule: Q04DX002 (ip), vehicle: saline): 0 of 3
survivor count [3]: 0 of 3

CC(C)(C)C1COP(=S)(C(C)(C)C)OC1 (stereo not drawn)
survivor count (dose: 400.0 mg/kg/injection, schedule: Q04DX003 (ip), vehicle: Klucel (hydroxypropylcellulose) (HPC)): 3 of 6

C/C(=C\C(=O)O)CC(=O)O
survivor count (dose: 50.0 mg/kg/injection, schedule: Q01DX009 (ip), vehicle: water): 5 of 6
survivor count (dose: 200.0 mg/kg/injection, schedule: Q01DX009 (ip), vehicle: water): 3 of 6
survivor count (dose: 200.0 mg/kg/injection, schedule: Q04DX003 (ip), vehicle: water): 3 of 6
survivor count (dose: 400.0 mg/kg/injection, schedule: Q04DX003 (ip), vehicle: water): 0 of 6

Clc1cnc(C(Cl)(Cl)Cl)c(Cl)n1 (tested in a mixture with another compound)
survivor count (dose: 50.0 mg/kg/injection, schedule: Q01DX009 (ip), vehicle: Klucel (hydroxypropylcellulose) (HPC)): 3 of 3
survivor count [4]: 0 of 3
survivor count [5]: 0 of 3

Fc1cc(N(CCCl)CCCl)ccc1CNCCCNCc1ccc(N(CCCl)CCCl)cc1F
survivor count (dose: 100.0 mg/kg/injection, schedule: Q01DX001 (ip), vehicle: carboxymethylcellulose (CMC)): 0 of 4
survivor count (dose: 200.0 mg/kg/injection, schedule: Q01DX001 (ip), vehicle: carboxymethylcellulose (CMC)): 0 of 4
survivor count [6]: 0 of 4

CCCC[As](=O)(O)CCCc1ccccc1
survivor count (dose: 6.25 mg/kg/injection, schedule: Q01DX009 (ip), vehicle: saline): 0 of 3
survivor count (dose: 12.5 mg/kg/injection, schedule: Q01DX009 (ip), vehicle: saline): 0 of 3
survivor count [7]: 0 of 3
survivor count [8]: 0 of 3
survivor count [2]: 0 of 3
survivor count [9]: 0 of 3

CCCCCCCCCCCCCCCCCC[n+]1ccc(C(N)=O)cc1
survivor count [10]: 0 of 6
survivor count [11]: 0 of 6

CCCCCCCCCCCCCCCCCC[N+](C)(C)c1nc(Cl)nc(Cl)n1
survivor count (dose: 150.0 mg/kg/injection, schedule: Q04DX003 (ip), vehicle: Klucel (hydroxypropylcellulose) (HPC)): 0 of 6
survivor count (dose: 300.0 mg/kg/injection, schedule: Q04DX003 (ip), vehicle: Klucel (hydroxypropylcellulose) (HPC)): 0 of 6
survivor count [6]: 1 of 4

CC(C)(CO)C(O)C(=O)NN (stereo not drawn)
survivor count [12]: 4 of 4

CN(C)Cc1ccnc(Cl)n1
survivor count (dose: 4.0 mg/kg/injection, schedule: Q01DX Z (ip), vehicle: methylcellulose (MC)): 0 of 6
survivor count (dose: 8.0 mg/kg/injection, schedule: Q01DX Z (ip), vehicle: methylcellulose (MC)): 0 of 6
survivor count (dose: 16.0 mg/kg/injection, schedule: Q01DX Z (ip), vehicle: methylcellulose (MC)): 0 of 6
survivor count (dose: 31.0 mg/kg/injection, schedule: Q01DX Z (ip), vehicle: methylcellulose (MC)): 0 of 6
survivor count (dose: 62.0 mg/kg/injection, schedule: Q01DX Z (ip), vehicle: methylcellulose (MC)): 0 of 6
survivor count (dose: 125.0 mg/kg/injection, schedule: Q01DX Z (ip), vehicle: methylcellulose (MC)): 0 of 6

CC1(C)N=C(N)N=C(N)N1c1ccc(CCC(=O)Nc2cccc(S(=O)(=O)F)c2)cc1
survivor count (dose: 150.0 mg/kg/injection, schedule: Q#A X018 (ip), vehicle: saline): 4 of 6
survivor count [9]: 2 of 6
survivor count (dose: 200.0 mg/kg/injection, schedule: Q#A X018 (ip), vehicle: saline): 1 of 6
survivor count (dose: 300.0 mg/kg/injection, schedule: Q01DX009 (ip), vehicle: saline): 0 of 6
survivor count (dose: 400.0 mg/kg/injection, schedule: Q01DX009 (ip), vehicle: saline): 0 of 6
survivor count (dose: 500.0 mg/kg/injection, schedule: Q01DX009 (ip), vehicle: saline): 0 of 6

CC(C)(COC(=O)COc1ccc(Cl)cc1Cl)[N+](=O)[O-]
survivor count (dose: 400.0 mg/kg/injection, schedule: Q01DX009 (ip), vehicle: Klucel (hydroxypropylcellulose) (HPC)): 6 of 6

O=c1c(CCO)c(C2CC2)n2n1CCCC2
survivor count (dose: 37.5 mg/kg/injection, schedule: Q01DX001 (ip), vehicle: other): 0 of 6
survivor count (dose: 75.0 mg/kg/injection, schedule: Q01DX001 (ip), vehicle: other): 0 of 6
survivor count [13]: 0 of 6
survivor count [14]: 0 of 6

CC(C)NC(=S)Nc1ccccc1
survivor count [13]: 3 of 6
survivor count [14]: 0 of 6

CCOc1ccc2c(ccc(C)[n+]2C)c1
survivor count (dose: 300.0 mg/kg/injection, schedule: Q01DX001 (ip), vehicle: carboxymethylcellulose (CMC)): 0 of 6

CC([NH-])C(=O)O.CC([NH-])C(=O)O.[Ni+2] (stereo not drawn)
survivor count [7]: 6 of 6
survivor count [8]: 1 of 6
survivor count [2]: 0 of 6
survivor count (dose: 100.0 mg/kg/injection, schedule: Q04DX003 (ip), vehicle: saline): 1 of 6
survivor count [10]: 0 of 6
survivor count [11]: 1 of 6

CCOC(=O)c1ccc(Cl)cc1
survivor count (dose: 200.0 mg/kg/injection, schedule: Q01DX009 (ip), vehicle: saline with Tween-80): 6 of 6
survivor count [1]: 3 of 6

COC(=O)c1cc([N+](=O)[O-])cc([N+](=O)[O-])c1O
survivor count [4]: 3 of 3
survivor count [5]: 0 of 3
survivor count (dose: 400.0 mg/kg/injection, schedule: Q04DX002 (ip), vehicle: saline with Tween-80): 0 of 3

CC1C=CCC(C)(C)C1 (stereo not drawn)
survivor count (dose: 800.0 mg/kg/injection, schedule: Q01DX009 (ip), vehicle: carboxymethylcellulose (CMC)): 5 of 6
survivor count (dose: 1000.0 mg/kg/injection, schedule: Q01DX009 (ip), vehicle: carboxymethylcellulose (CMC)): 5 of 6

CCOc1ccccc1NC(=O)C1CCCCC1C(=O)O (stereo not drawn)
survivor count [3]: 1 of 3

c1n[nH]c2c1CCC2
survivor count (dose: 300.0 mg/kg/injection, schedule: Q01DX009 (ip), vehicle: saline with Tween-80): 3 of 6

C(CC1CCNCC1)CC1CCNCC1 (tested in a mixture with another compound)
survivor count (dose: 200.0 mg/kg/injection, schedule: Q01DX001 (ip), vehicle: saline): 1 of 6
survivor count [12]: 0 of 6

O=C(Nc1ccc(Cl)c(Cl)c1)Nc1ccc(Oc2ccc(Cl)cc2Cl)cc1S(=O)(=O)O
survivor count (dose: 400.0 mg/kg/injection, schedule: Q04DX003 (ip), vehicle: alcohol): 4 of 6

COC(=O)C1(C)COP(=O)(Nc2ccc(OC)cc2)OC1 (stereo not drawn)
survivor count [12]: 4 of 4

CC(C)C(C#N)(CCCCN1CCCCC1)c1cccc2ccccc12 (stereo not drawn)
survivor count (dose: 400.0 mg/kg/injection, schedule: Q04DX003 (ip), vehicle: saline with Tween-80): 1 of 6
